Results on five molecules are retold here after paper PMC3419192.

Amino acid sequences for entries named in this document (tags omitted).
UniProt P23804: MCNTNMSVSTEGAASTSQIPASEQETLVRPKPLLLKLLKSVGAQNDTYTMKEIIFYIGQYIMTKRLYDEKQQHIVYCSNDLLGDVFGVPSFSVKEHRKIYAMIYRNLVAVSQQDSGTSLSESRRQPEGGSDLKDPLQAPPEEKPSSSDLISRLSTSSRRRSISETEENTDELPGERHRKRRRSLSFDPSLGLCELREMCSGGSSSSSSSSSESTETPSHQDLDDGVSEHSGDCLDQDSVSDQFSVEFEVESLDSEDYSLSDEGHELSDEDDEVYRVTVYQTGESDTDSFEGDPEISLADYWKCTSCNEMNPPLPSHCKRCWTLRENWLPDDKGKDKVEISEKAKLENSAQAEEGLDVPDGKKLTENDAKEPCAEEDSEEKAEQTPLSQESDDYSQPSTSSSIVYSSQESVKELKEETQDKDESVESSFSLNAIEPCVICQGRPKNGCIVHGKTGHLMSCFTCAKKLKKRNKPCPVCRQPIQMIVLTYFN

For experiment [1], the target named is Myc-MDM2, full-length (pCMV-Tag3b-Myc-MDM2) (UniProt P23804). The experiment is described as follows: co-IP; Dynabeads Protein A with anti-CCAR1, anti-MDM2, anti-necdin or unspecific IgG; 1.5 mg extract of C2C12 transfected with pCMV-FLAG-Necdin, pCMV-Tag3b-Myc-MDM2 and pSG5-HA-CCAR1, or of Tibialis anterior of tgMlcNec mice, 5 h at 4 °C; western blot. For orientation: In western blotting, separated proteins are transferred to a membrane and probed.

The target in another experiment is T1, HA-CCAR1 (pSG5-HA-CCAR1) (UniProt Q8CH18).
T1 sequence: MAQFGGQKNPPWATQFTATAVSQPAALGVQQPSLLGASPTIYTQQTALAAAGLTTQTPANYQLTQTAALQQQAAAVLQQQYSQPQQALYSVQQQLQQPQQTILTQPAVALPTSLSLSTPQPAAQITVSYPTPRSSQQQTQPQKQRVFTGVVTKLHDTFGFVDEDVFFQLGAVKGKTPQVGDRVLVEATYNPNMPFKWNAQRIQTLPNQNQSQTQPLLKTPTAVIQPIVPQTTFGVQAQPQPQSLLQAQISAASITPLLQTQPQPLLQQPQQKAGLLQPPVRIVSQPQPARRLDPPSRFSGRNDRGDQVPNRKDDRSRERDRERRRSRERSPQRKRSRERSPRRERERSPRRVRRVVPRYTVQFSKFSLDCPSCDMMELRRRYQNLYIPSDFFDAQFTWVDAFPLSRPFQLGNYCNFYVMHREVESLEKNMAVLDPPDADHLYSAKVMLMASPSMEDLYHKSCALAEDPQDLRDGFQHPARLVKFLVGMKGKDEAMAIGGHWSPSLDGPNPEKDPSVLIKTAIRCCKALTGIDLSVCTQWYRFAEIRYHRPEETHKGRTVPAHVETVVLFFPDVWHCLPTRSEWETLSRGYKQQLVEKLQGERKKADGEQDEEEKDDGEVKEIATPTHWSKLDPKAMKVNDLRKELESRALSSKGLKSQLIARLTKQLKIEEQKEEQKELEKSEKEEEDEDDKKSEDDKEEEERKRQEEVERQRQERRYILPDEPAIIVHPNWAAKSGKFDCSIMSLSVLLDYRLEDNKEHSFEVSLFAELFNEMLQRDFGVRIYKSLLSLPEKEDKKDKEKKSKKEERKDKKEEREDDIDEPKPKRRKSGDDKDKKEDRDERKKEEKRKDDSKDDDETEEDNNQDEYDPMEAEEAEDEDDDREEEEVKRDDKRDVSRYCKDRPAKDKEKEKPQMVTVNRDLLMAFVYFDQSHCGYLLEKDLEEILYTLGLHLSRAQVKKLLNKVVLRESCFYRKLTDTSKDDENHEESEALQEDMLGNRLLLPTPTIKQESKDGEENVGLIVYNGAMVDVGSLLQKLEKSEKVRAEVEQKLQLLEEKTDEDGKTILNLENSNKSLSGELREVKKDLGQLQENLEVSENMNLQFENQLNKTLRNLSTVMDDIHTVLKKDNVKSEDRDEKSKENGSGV
Described as above.

The target of experiment [2] is T2, CCAR1/CARP1, endogenous in mouse myogenic cells and muscle (mouse (endogenous in C2C12, primary myoblasts and Tibialis anterior muscle)) (UniProt Q8CH18).
T2 sequence: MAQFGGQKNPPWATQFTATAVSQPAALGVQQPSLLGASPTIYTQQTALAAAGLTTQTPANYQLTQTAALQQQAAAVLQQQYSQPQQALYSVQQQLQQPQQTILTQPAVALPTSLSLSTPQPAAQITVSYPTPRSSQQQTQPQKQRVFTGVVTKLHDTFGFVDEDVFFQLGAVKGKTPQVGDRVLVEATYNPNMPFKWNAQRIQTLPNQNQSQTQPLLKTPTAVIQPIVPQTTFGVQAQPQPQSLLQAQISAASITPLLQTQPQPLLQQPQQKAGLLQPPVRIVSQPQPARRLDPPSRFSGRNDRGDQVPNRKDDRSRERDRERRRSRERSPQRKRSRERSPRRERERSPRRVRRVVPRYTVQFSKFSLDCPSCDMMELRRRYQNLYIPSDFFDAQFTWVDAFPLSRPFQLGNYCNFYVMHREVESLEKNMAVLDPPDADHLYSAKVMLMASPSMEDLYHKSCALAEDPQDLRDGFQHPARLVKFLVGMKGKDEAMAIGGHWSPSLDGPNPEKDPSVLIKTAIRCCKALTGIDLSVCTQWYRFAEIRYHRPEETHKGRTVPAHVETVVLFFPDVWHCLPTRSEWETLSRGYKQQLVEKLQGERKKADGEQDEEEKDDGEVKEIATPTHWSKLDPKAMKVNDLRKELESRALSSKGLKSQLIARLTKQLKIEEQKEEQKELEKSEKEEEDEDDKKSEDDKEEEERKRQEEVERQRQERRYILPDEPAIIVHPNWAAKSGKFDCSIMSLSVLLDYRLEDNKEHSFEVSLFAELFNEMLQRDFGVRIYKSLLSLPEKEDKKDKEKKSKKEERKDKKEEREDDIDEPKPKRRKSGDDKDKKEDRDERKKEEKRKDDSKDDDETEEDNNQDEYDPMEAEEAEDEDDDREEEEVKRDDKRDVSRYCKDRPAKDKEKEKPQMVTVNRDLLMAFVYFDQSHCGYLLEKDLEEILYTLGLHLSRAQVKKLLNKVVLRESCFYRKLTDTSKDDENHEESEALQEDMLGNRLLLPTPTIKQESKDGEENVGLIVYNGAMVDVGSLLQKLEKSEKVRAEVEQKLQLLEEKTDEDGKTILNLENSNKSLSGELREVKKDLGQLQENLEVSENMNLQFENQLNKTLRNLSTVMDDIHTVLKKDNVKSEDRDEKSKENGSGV
Kind of experiment: co-IP; protein A agarose beads with anti-CCAR1, anti-necdin or control IgG; 1 mg protein extract of transfected C2C12 or of primary myoblasts in RIPA buffer, overnight at 4 °C; wash buffer with 500 mM NaCl, 0.1% SDS, 1% NP-40; western blot.

For experiment [3], the target named is MDM2, endogenous in Tibialis anterior muscle (mouse (endogenous in Tibialis anterior muscle)) (UniProt P23804). The experiment is described as follows: co-IP; Dynabeads Protein A with anti-CCAR1, anti-MDM2, anti-necdin or unspecific IgG; 1.5 mg extract of C2C12 transfected with pCMV-FLAG-Necdin, pCMV-Tag3b-Myc-MDM2 and pSG5-HA-CCAR1, or of Tibialis anterior of tgMlcNec mice, 5 h at 4 °C; western blot.

The target of experiment [4] is T2, CCAR1/CARP1, endogenous in mouse myogenic cells and muscle (mouse (endogenous in C2C12, primary myoblasts and Tibialis anterior muscle)). The description is as above.
Experiment [5] concerns the target T3, necdin, full-length, fused to the Gal4 DNA binding domain (pGBKT7-Necdin) (UniProt P25233).
T3 sequence: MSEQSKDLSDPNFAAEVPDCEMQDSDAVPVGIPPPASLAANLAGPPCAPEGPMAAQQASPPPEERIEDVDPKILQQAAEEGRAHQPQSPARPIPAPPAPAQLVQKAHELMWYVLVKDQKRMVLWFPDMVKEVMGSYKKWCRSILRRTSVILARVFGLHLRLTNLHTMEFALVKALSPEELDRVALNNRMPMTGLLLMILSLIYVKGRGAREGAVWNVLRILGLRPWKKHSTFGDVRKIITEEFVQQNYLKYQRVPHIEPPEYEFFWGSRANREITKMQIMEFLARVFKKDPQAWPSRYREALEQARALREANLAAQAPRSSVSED
Kind of experiment: two-hybrid; mating: pGAD-Rec CCAR1 in AH109 mat-a, pGBKT7-Necdin in Y187 mat-alpha; diploids plated on SD/-Leu, -His, -Trp, -Ade.

Experiment [6] concerns the target T3, necdin, full-length, fused to the Gal4 DNA binding domain (pGBKT7-Necdin). The experiment is described as follows: two-hybrid; library screen in S. cerevisiae AH109: pGBKT7-necdin co-transformed with a cDNA library of primary myoblasts and linearized pGAD-Rec; selection on SD -Leu -Trp -His, then -Leu -His -Trp -Ade with X-Gal.

Results are given in words; binding and its absence hold for the method and conditions named. For part of these data: Binding seen in cells or lysates may run through a third protein. Some results given as binding are weak or reduced against the parent protein; the word gives no strength. For part of these data: Where a sequence is shown, tags or fusion partners need not be part of it.

B1: FLAG-necdin, full-length (pCMV-FLAG-Necdin) (protein, UniProt P25233 1-325)
chain: MSEQSKDLSDPNFAAEVPDCEMQDSDAVPVGIPPPASLAANLAGPPCAPEGPMAAQQASPPPEERIEDVDPKILQQAAEEGRAHQPQSPARPIPAPPAPAQLVQKAHELMWYVLVKDQKRMVLWFPDMVKEVMGSYKKWCRSILRRTSVILARVFGLHLRLTNLHTMEFALVKALSPEELDRVALNNRMPMTGLLLMILSLIYVKGRGAREGAVWNVLRILGLRPWKKHSTFGDVRKIITEEFVQQNYLKYQRVPHIEPPEYEFFWGSRANREITKMQIMEFLARVFKKDPQAWPSRYREALEQARALREANLAAQAPRSSVSED
On to B1, for which the binding entry (in experiment [1]; with HA-CCAR1 (pSG5-HA-CCAR1); in experiment [2]) was “binds” in each case.

B2: necdin, endogenous in primary myoblasts (protein, UniProt P25233 1-325)
chain: MSEQSKDLSDPNFAAEVPDCEMQDSDAVPVGIPPPASLAANLAGPPCAPEGPMAAQQASPPPEERIEDVDPKILQQAAEEGRAHQPQSPARPIPAPPAPAQLVQKAHELMWYVLVKDQKRMVLWFPDMVKEVMGSYKKWCRSILRRTSVILARVFGLHLRLTNLHTMEFALVKALSPEELDRVALNNRMPMTGLLLMILSLIYVKGRGAREGAVWNVLRILGLRPWKKHSTFGDVRKIITEEFVQQNYLKYQRVPHIEPPEYEFFWGSRANREITKMQIMEFLARVFKKDPQAWPSRYREALEQARALREANLAAQAPRSSVSED
B2: the binding result in experiment [2] is listed as “binds”.

B3: necdin in Tibialis anterior muscle of tgMlcNec mice (necdin gain of function) (protein, UniProt P25233 1-325)
chain: MSEQSKDLSDPNFAAEVPDCEMQDSDAVPVGIPPPASLAANLAGPPCAPEGPMAAQQASPPPEERIEDVDPKILQQAAEEGRAHQPQSPARPIPAPPAPAQLVQKAHELMWYVLVKDQKRMVLWFPDMVKEVMGSYKKWCRSILRRTSVILARVFGLHLRLTNLHTMEFALVKALSPEELDRVALNNRMPMTGLLLMILSLIYVKGRGAREGAVWNVLRILGLRPWKKHSTFGDVRKIITEEFVQQNYLKYQRVPHIEPPEYEFFWGSRANREITKMQIMEFLARVFKKDPQAWPSRYREALEQARALREANLAAQAPRSSVSED
In the case of B3, the binding result in experiment [3] and in experiment [4] was “binds” in each case.

B4: CCAR1/CARP1 amino-acids 637-822, clone from the myoblast cDNA library fused to the Gal4 activation domain (pGAD-Rec CCAR1) (domain or fragment, UniProt Q8CH18 637-822)
chain: KVNDLRKELESRALSSKGLKSQLIARLTKQLKIEEQKEEQKELEKSEKEEEDEDDKKSEDDKEEEERKRQEEVERQRQERRYILPDEPAIIVHPNWAAKSGKFDCSIMSLSVLLDYRLEDNKEHSFEVSLFAELFNEMLQRDFGVRIYKSLLSLPEKEDKKDKEKKSKKEERKDKKEEREDDIDEP
Consider B4, for which the binding entry in experiment [5] and in experiment [6] was “binds” each time.

B5: HA-CCAR1 (pSG5-HA-CCAR1) (protein, UniProt Q8CH18 1-1146)
chain: MAQFGGQKNPPWATQFTATAVSQPAALGVQQPSLLGASPTIYTQQTALAAAGLTTQTPANYQLTQTAALQQQAAAVLQQQYSQPQQALYSVQQQLQQPQQTILTQPAVALPTSLSLSTPQPAAQITVSYPTPRSSQQQTQPQKQRVFTGVVTKLHDTFGFVDEDVFFQLGAVKGKTPQVGDRVLVEATYNPNMPFKWNAQRIQTLPNQNQSQTQPLLKTPTAVIQPIVPQTTFGVQAQPQPQSLLQAQISAASITPLLQTQPQPLLQQPQQKAGLLQPPVRIVSQPQPARRLDPPSRFSGRNDRGDQVPNRKDDRSRERDRERRRSRERSPQRKRSRERSPRRERERSPRRVRRVVPRYTVQFSKFSLDCPSCDMMELRRRYQNLYIPSDFFDAQFTWVDAFPLSRPFQLGNYCNFYVMHREVESLEKNMAVLDPPDADHLYSAKVMLMASPSMEDLYHKSCALAEDPQDLRDGFQHPARLVKFLVGMKGKDEAMAIGGHWSPSLDGPNPEKDPSVLIKTAIRCCKALTGIDLSVCTQWYRFAEIRYHRPEETHKGRTVPAHVETVVLFFPDVWHCLPTRSEWETLSRGYKQQLVEKLQGERKKADGEQDEEEKDDGEVKEIATPTHWSKLDPKAMKVNDLRKELESRALSSKGLKSQLIARLTKQLKIEEQKEEQKELEKSEKEEEDEDDKKSEDDKEEEERKRQEEVERQRQERRYILPDEPAIIVHPNWAAKSGKFDCSIMSLSVLLDYRLEDNKEHSFEVSLFAELFNEMLQRDFGVRIYKSLLSLPEKEDKKDKEKKSKKEERKDKKEEREDDIDEPKPKRRKSGDDKDKKEDRDERKKEEKRKDDSKDDDETEEDNNQDEYDPMEAEEAEDEDDDREEEEVKRDDKRDVSRYCKDRPAKDKEKEKPQMVTVNRDLLMAFVYFDQSHCGYLLEKDLEEILYTLGLHLSRAQVKKLLNKVVLRESCFYRKLTDTSKDDENHEESEALQEDMLGNRLLLPTPTIKQESKDGEENVGLIVYNGAMVDVGSLLQKLEKSEKVRAEVEQKLQLLEEKTDEDGKTILNLENSNKSLSGELREVKKDLGQLQENLEVSENMNLQFENQLNKTLRNLSTVMDDIHTVLKKDNVKSEDRDEKSKENGSGV
Turning to B5, the binding entry in experiment [1] was “binds”.
